In PubChem BioAssay AID1487 (National Center for Advancing Translational Sciences (NCATS), 2009):
Some of the results follow. The main result of the screen is listed elsewhere. These columns were measured beside it and carry no call. Most of these compounds were active or inconclusive in the main read-out, so they are no random draw. Potencies come from curve fits of mixed quality, noted in brackets.

Assay: qHTS Assay for Modulators of Lamin A Splicing
Settings: HeLa LMNA splicing GFP/RFP minigene ratio, 48 h
Method in brief: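 S3 HeLa stable clones carrying a lamin A-EGFP splicing minigene plus DsRed2 were seeded at 600 cells/well in Opti-MEM with 2% FBS, pin-dosed and incubated 48 h at 37°C. Acumen cytometry (488 nm) gave the GFP/RFP total-intensity ratio.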

[1] = measured here: GFP splicing reporter channel
[2] = measured here: RFP viability control channel

Row | SMILES | AC50 [1] | AC50 [2]
1 | Cc1ccc(N2C(=O)C3C4C=CC(CNC(=S)Nc5cccc(Cl)c5)(O4)C3C2=O)cc1 (configuration not stated) | 12.6 µM [rising, single point] | 17.8 µM [rising, single point]
2 | O=S(=O)(c1ccccc1)c1nc(Nc2ccccc2N2CCOCC2)sc1Cl | 3.98 µM [rising, partial curve, poor fit] | 15.8 µM [rising, partial curve]
3 | Cc1nn(-c2ccccc2)c(Cl)c1C(=O)N1CCN(c2ncnc3c2cnn3-c2ccccc2)CC1 | – | 15.8 µM [rising, single point]
4 | CCC(=O)Oc1ccc(-c2nc(-c3cccnc3)no2)cc1 | – | 0.316 µM [falling, full curve, poor fit]
5 | CCOc1ccc(N2C(=O)C3ON(c4ccccc4)C(c4cccs4)C3C2=O)cc1 (configuration not stated) | 2.82 µM [falling, full curve, poor fit] | –
6 | Cc1ccc(C2=N/C(=C\c3cccs3)C(=O)N2Nc2ccccc2)cc1 | – | 15.8 µM [rising, single point]
7 | CCOc1cc(N2CCOCC2)c(OCC)cc1NC(=O)CSc1ncccn1 | 5.62 µM [falling, partial curve] | –
8 | CC(=O)c1cccc(NC(=O)N2CCCc3ccccc32)c1 | – | 0.141 µM [falling, full curve, poor fit]
9 | Cc1nc(NCc2ccco2)c2c(C)c(C)sc2n1 | 20 µM [falling, single point] | 31.6 µM [falling, single point]
10 | Cc1ccc(NC(=O)c2cc(C)n(-c3ccccc3)c2C)cc1 | 35.5 µM [falling, single point] | 25.1 µM [falling, single point]
11 | CCCCC(=O)NC(=S)Nc1cccc(NC(=O)c2ccco2)c1 | – | 0.0316 µM [rising, full curve, poor fit]
12 | CCc1ccccc1NC(=O)CSc1nnc([C@@H]2CCCN2C(=O)OC(C)(C)C)o1 | 7.94 µM [falling, partial curve] | 15.8 µM [falling, partial curve, poor fit]
13 | Cc1ccccc1NC(=O)c1nc(-c2ccncc2)no1 | – | 2 µM [falling, full curve]
14 | CC(C)c1onc(C(=O)N(C)Cc2ccccc2)c1[N+](=O)[O-] | – | 3.16 µM [falling, partial curve]
15 | CCc1ccc(NC(=S)/N=C(\N)Nc2nc(C)c3cc(CC)ccc3n2)cc1 | – | 35.5 µM [rising, single point]
16 | O=C(CSCc1ccccc1)N/N=C/c1ccccc1OCc1ccccc1 | 12.6 µM [rising, single point] | 15.8 µM [rising, single point]
17 | Cc1cccc(NC(=S)NCc2ccc(F)cc2)c1 | 12.6 µM [rising, single point] | 17.8 µM [rising, single point]
18 | CCN(CC)S(=O)(=O)c1ccc(C(=O)Nc2nnc(C(C)C)s2)cc1 | – | 6.31 µM [rising, partial curve, poor fit]
19 | CCn1cc(S(=O)(=O)c2ccccc2)c(=O)c2cc(F)c(N3CCCCCC3)cc21 | 0.224 µM [falling, full curve] | 5.62 µM [falling, partial curve]

Two compounds picked at random from those above, as already listed:
Row | SMILES | AC50 [1] | AC50 [2]
15 | CCc1ccc(NC(=S)/N=C(\N)Nc2nc(C)c3cc(CC)ccc3n2)cc1 | – | 35.5 µM [rising, single point]
19 | CCn1cc(S(=O)(=O)c2ccccc2)c(=O)c2cc(F)c(N3CCCCCC3)cc21 | 0.224 µM [falling, full curve] | 5.62 µM [falling, partial curve]

Further entries:

Row | SMILES | AC50 [1] | AC50 [2]
20 | CCCc1c(CC)c(=N)c2ccccc2n1C | – | 14.1 µM [rising, single point]
21 | O=C(O)c1ccc(C(=O)c2ccc3c(c2)C(=O)N(CC2CCCO2)C3=O)cc1 (configuration not stated) | 17.8 µM [rising, partial curve, poor fit] | –
22 | S=C(NCCCN1CCOCC1)Nc1ccc(Cl)cc1 | 35.5 µM [rising, single point] | –
23 | Cc1cc(C(=O)N/N=C/c2cc(Cl)cc([N+](=O)[O-])c2O)c2ccccc2n1 | – | 22.4 µM [rising, single point]
24 | CCCCC1=CC2=C(c3ccco3)C(=O)C(C)(OC(=O)c3ccc(OC)cc3)C(=O)C2=CN1Cc1ccc2c(c1)OCO2 (configuration not stated) | 2.82 µM [falling, single point] | –
25 | O=C(CSc1ncn[nH]1)N1CCOCC1 | 0.00794 µM [falling, full curve, poor fit] | 0.01 µM [falling, full curve, poor fit]
26 | O=C(NCc1cccnc1)c1ccc(COc2ccc3c(c2)CCC3)o1 | – | 15.8 µM [rising, partial curve, poor fit]
27 | CCOC(=O)c1cc2c(ccn2C)n1CC(=O)N1CCC(Cc2ccccc2)CC1 | 14.1 µM [rising, single point] | 15.8 µM [rising, single point]
28 | CCn1ncc(C2=NOC(C(=O)Nc3cccnc3)C2)c1C (configuration not stated) | – | 17.8 µM [rising, single point]
29 | COc1cccc(N/C=C/c2onc(C)c2[N+](=O)[O-])c1 | – | 0.355 µM [rising, partial curve, poor fit]
30 | O=c1c2ccccc2nc(/C=C/c2ccccc2)n1CCc1ccccc1 | – | 20 µM [rising, partial curve]
31 | O=C(c1ccccc1)N1CCC(c2nc(-c3ccc(S(=O)(=O)NCC4CCCO4)cc3)no2)CC1 (configuration not stated) | – | 2.82 µM [rising, full curve]
32 | Cn1c(=O)n(C)c2cc(CNCc3ccc(C(=O)O)cc3)ccc21 | 0.0631 µM [rising, full curve, poor fit] | –
33 | CC(Sc1nc2ccccc2s1)C(=O)Nc1nnc(C(C)C)s1 (configuration not stated) | – | 31.6 µM [rising, single point]
34 | CC(Oc1ccc(Cl)cc1Cl)C(=O)Nc1ccc2oc(-c3ccncc3)nc2c1 (configuration not stated) | – | 2.82 µM [rising, full curve, poor fit]
35 | Oc1ccc(-c2nc3cnccn3c2Nc2ccc3c(c2)OCCO3)cc1 | – | 35.5 µM [rising, single point]
36 | O=C(c1ccc(Cl)c(S(=O)(=O)N2CCCCCC2)c1)N1CCOCC1 | 3.55 µM [rising, single point] | –
37 | CCOc1ccc(-c2csc(NC(=O)c3ccc(S(=O)(=O)N4CCc5ccccc5C4)cc3)n2)cc1 | – | 28.2 µM [rising, single point]
